Test results reported in PubChem BioAssay AID1671190 (National Center for Advancing Translational Sciences (NCATS), 2021).
About 6,100 (1.1%) of roughly 580,000 compounds were called active. This list was built around the results that the source calls inconclusive (neither active nor inactive); the mix of calls is not that of the screen. The call rests on the fitted dose curve; in most records, active means well fitted inhibition curve with a large enough effect; inconclusive means small, poorly fitted or top-dose-only effect, or another doubt; inactive means no such curve, though single readings can be large or run the other way. A potency beside an inconclusive call is a rough fit, not a confirmed value.
Potency means the concentration at half of the fitted maximal effect.

By UniProt entry, the sequences of proteins in these tests, tags left out.
UniProt P18054, whole entry, looked up: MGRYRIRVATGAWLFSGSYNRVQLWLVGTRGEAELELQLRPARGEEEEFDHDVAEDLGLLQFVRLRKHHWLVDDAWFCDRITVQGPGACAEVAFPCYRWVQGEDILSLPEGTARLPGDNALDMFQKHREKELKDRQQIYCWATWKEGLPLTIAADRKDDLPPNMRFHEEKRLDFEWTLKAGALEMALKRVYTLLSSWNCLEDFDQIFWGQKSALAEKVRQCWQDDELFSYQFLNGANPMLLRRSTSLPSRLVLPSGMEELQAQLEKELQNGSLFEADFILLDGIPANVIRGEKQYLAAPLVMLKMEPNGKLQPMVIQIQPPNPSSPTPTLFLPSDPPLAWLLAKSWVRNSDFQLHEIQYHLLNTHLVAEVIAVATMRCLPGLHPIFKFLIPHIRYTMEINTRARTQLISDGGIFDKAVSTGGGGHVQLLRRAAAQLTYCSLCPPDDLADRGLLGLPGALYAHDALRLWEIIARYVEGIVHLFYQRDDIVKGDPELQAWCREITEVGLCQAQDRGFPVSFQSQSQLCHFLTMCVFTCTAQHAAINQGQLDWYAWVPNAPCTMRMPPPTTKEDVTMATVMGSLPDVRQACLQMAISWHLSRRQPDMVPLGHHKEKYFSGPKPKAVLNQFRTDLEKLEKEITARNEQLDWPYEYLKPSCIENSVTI

Each molecule was assayed against Polyunsaturated fatty acid lipoxygenase ALOX12 (Homo sapiens) (UniProt P18054) (assay: Primary qHTS assay for inhibitors of human arachidonate 12S-lipoxygenase (ALOX12): Round 2). Conditions: purified 12hLO, xylenol orange hydroperoxide absorbance; series mostly up to 108 µM.
Outline: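 Purified human 12hLO (150 nM final) in 25 mM Hepes, 0.01% Triton X-100, pH 7.0 was preincubated 15 min at room temperature with compound. Then 40 uM arachidonic acid was added, 30 min. Hydroperoxide was read by Fe-XO absorbance ratio 573/405 nm.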
`CCN1CCN(CCCNC(=O)c2ccc3c(c2)sc2nc(-c4ccc(C)cc4)cn23)CC1` was tested, and the Potency was inconclusive: 17.8 µM [inhibitor, partial curve, poor fit]. In the case of `COc1ccc(-c2cc(C)no2)cc1S(=O)(=O)N1CC(C)Oc2ccccc21` (stereo not given), the Potency is reported as “inactive”. For `CCOC(=O)C1=C(C)NC2=C(C(=O)c3ccccc32)C1c1ccc([N+](=O)[O-])o1` (stereo not given), the Potency was active: 28.2 µM. With `CCOCCOC1CCN(C(=O)c2cc3ccccc3[nH]2)CC1` the Potency was “inactive”. `Cc1ccc(/C(C#N)=C\c2ccc(N3CCOCC3)o2)cc1` was tested, and the Potency was active: 12.6 µM. For `COc1ncc(-c2ccc(N3C(c4ccsc4)=Cc4ccccc4C3CC(C)=O)cc2)cn1` (stereo not given), the Potency was inconclusive: 50.1 µM [inhibitor, partial curve, poor fit]. `Cc1nc(NC2CCCCC2)c2nnn(Cc3ccccc3Cl)c2n1` was tested, and the Potency was inconclusive: 100 µM [inhibitor, single point]. In the case of `NCc1cccc(-c2cncnc2)c1`, the Potency is reported as inconclusive: 5.01 µM [inhibitor, full curve]. `COc1cccc(-c2cnc(C(O)c3ccc(Cl)c(Cl)c3)[nH]2)c1` (stereo not given) was tested, and the Potency was “inactive”. In the case of `O=C1C2CC=C(Cl)CC2C(=O)N1c1ncn[nH]1` (stereo not given), the Potency is reported as inconclusive: 25.1 µM [inhibitor, single point]. `O=S(=O)(c1ccc(NC(=S)NCc2ccc(F)cc2)cc1)N1CCOCC1` was tested, and the Potency was inconclusive: 112 µM [inhibitor, single point]. For `O=C1CC(c2cccc(F)c2)c2c(n3ncnc3[nH]c2=O)N1` (stereo not given), the Potency was inconclusive: 17.8 µM [inhibitor, full curve, poor fit]. In the case of `COc1ccc(C(=O)/C=C/c2cc(OC)c(O)c(OC)c2)c(F)c1`, the Potency is reported as active: 44.7 µM. `CC1(C)CC(N2CCCC2)=CC(=[N+]2CCCC2)C1` was tested, and the Potency was active: 39.8 µM. With `O=C1Nc2ccccc2CC12CCN(Cc1ccc(F)cc1)C2` (stereo not given) the Potency was inconclusive: 25.1 µM [inhibitor, partial curve]. With `CC(=O)c1ccc(NC(=O)c2cccc(N(C)C)c2)cc1` the Potency was inconclusive: 100 µM [inhibitor, single point]. `O=C(O)Cc1cccn1-c1ccc(Cl)cc1` was tested, and the Potency was “inactive”. For `COC(CNC(=O)CCCn1nnnc1CN1CCOCC1)c1cccs1` (stereo not given), the Potency was inconclusive: 7.08 µM [inhibitor, partial curve, poor fit]. In the case of `COc1ccc(C(C#N)CC(=O)c2ccc3c(c2)OCO3)cc1OC` (stereo not given), the Potency is reported as “inactive”. In the case of `CCc1cccc(NC(=O)c2cnc(N3CCCCC3)c3ccccc23)c1`, the Potency is reported as “inactive”. `COc1cccc(/C=C(/C#N)C(=O)Nc2ccccc2C(=O)O)c1` was tested, and the Potency was inconclusive: 11.2 µM [inhibitor, full curve]. `CCCCCCC(=O)N1CCC(c2nc3c(nnn3Cc3ccccc3Cl)c(=O)[nH]2)CC1` was tested, and the Potency was inconclusive: 50.1 µM [inhibitor, partial curve, poor fit]. With `COc1ccc(C(CNS(=O)(=O)c2ccc(NC(C)=O)c(OC)c2)N2CCCCC2)cc1` (stereo not given) the Potency was inconclusive: 50.1 µM [inhibitor, partial curve, poor fit]. For `CC(C#N)OC(=O)c1cc(-c2cccs2)nc2ccccc12` (stereo not given), the Potency was “inactive”. `NC(=O)C1CCN(C(=O)c2ccc3c(c2)CCCN3S(=O)(=O)c2ccc(Cl)cc2)CC1` was tested, and the Potency was inconclusive: 35.5 µM [inhibitor, partial curve]. For `COc1ccc(C(C)=O)c(Oc2ccc(S(=O)(=O)N3CCOCC3)cn2)c1`, the Potency was inconclusive: 112 µM [inhibitor, single point]. In the case of `CCN(CCC(=O)Nc1ccc(Br)c(C)c1)Cc1ccccc1`, the Potency is reported as inconclusive: 28.2 µM [inhibitor, partial curve, poor fit]. For `CC(=O)c1ccc(N2CCN(C(=O)CCC(=O)c3cccs3)CC2)cc1`, the Potency was “inactive”. For `Clc1ccccc1-c1cc(NCc2cccnc2)ncn1`, the Potency was “inactive”. In the case of `CN(Cc1ccccc1)S(=O)(=O)c1cn(C)c(=O)n(C)c1=O`, the Potency is reported as “inactive”. For `NC(=O)c1ccc(-c2ccc(N3C(c4ccsc4)=Cc4ccc(F)cc4C3CC(=O)c3ccco3)cc2)cc1` (stereo not given), the Potency was inconclusive: 50.1 µM [inhibitor, partial curve, poor fit]. `CC[C@]12c3[nH]c4ccc(Cl)cc4c3CCN1C(=O)[C@@H](CC(=O)NCC13CC4CC(CC(C4)C1)C3)C[C@@H]2C(=O)N1CCN(C(=O)C2CC2)CC1` was tested, and the Potency was active: 39.8 µM. In the case of `CCOC(=O)c1ccc(N2CN(CCc3ccccc3)CNC2=S)cc1`, the Potency is reported as active: 44.7 µM. In the case of `C=CCOC(=O)C1=C[C@H](c2ccc(Br)cc2)C[C@H](OCc2ccc(CO)cc2)O1`, the Potency is reported as inconclusive: 44.7 µM [inhibitor, partial curve, poor fit]. In the case of `CCOC(=O)c1c(C)[nH]c(C(=O)C(C)Cl)c1C` (stereo not given), the Potency is reported as inconclusive: 39.8 µM [inhibitor, partial curve, poor fit]. `Fc1cccc(CCN2C(=S)NC[C@@H]2CC2CCCCC2)c1` was tested, and the Potency was active: 39.8 µM. In the case of `CCC(C(=O)Nc1ccc(OC)c(Cl)c1)n1nc(-c2cc(C)ccc2C)ccc1=O` (stereo not given), the Potency is reported as inconclusive: 2.51 µM [inhibitor, full curve, poor fit]. In the case of `Cc1ccc(N2CC(c3noc(-c4cc5ccccc5[nH]4)n3)CC2=O)cc1` (stereo not given), the Potency is reported as “inactive”. `O=C(Nc1ccccc1Cl)C1C2CCCCC21` (stereo not given) was tested, and the Potency was inconclusive: 126 µM [inhibitor, single point]. With `CCc1cc(-c2n[nH]c(=S)n2CC(C)C)cs1` the Potency was inconclusive: 44.7 µM [inhibitor, partial curve, poor fit]. With `CCOC(=O)c1sc(=S)n(-c2cc(OC)ccc2OC)c1N` the Potency was inconclusive: 39.8 µM [inhibitor, single point]. For `COc1ccc(NC(=O)C(C2CC2)n2c(=O)c(-c3ccco3)nc3ccccc32)cc1` (stereo not given), the Potency was inconclusive: 70.8 µM [inhibitor, partial curve, poor fit]. With `CC(C)C[C@H]1CCC[C@H](CC(C)C)[N+]1(C)C` the Potency was active: 14.1 µM. For `Cc1cccc(CNC(=O)CCCN2C(=O)COc3ccc(C)cc32)c1`, the Potency was “inactive”. In the case of `O=C(Nc1ccc(Sc2ccc(Br)cc2)cc1)c1n[nH]c(=O)c2ccccc12`, the Potency is reported as inconclusive: 31.6 µM [inhibitor, partial curve, poor fit].
